In PMC12040169 (PLOS Biology, 2025):
The list shows a part of the results. Peptide text beside a SMILES is read from it. * marks the point of attachment. Bz = O=C(c1ccccc1)*

system: T1, CTL2-GFP (C. trachomatis L2/434/Bu, GFP-expressing); parameters: species or system HeLa; Intracellular C. trachomatis growth in HeLa cells, bulk GFP fluorescence relative to DMSO; details: bulk GFP, single well; 28.5 h, 10 µM; inhibitor
T1 construct: L2/434/Bu, GFP-expressing

| Compound | % of control remaining |
| --- | --- |
| C[Si]1(C)O[Si](C)(C)O[Si](C)(CC[Si](C)(C)c2ccccc2)O[Si](C)(C)O1 [CBK260998] | 100% |
| CN(c1cccc(C#N)c1)C1CCN(c2nccn(C)c2=O)C1 (centres unmarked) [CBK304718] | 143.808% |
| OC(COCc1ccc2c(c1)OCO2)CN1CCN(Cc2ccccc2)CC1 (centres unmarked) [CBK278249C] | 121.72% |
| COc1ccc(Nc2nc(-c3ccc(Cl)cc3)cn3ccnc23)cn1 [CBK066254] | 84.163% |
| CCOC(=O)C1CCN(c2cccc(F)c2C#N)CC1 [CBK304558] | 124.096% |
| c1csc(CNCCCN2CCOCC2)c1 [CBK278305C] | 147.445% |
| O=C(NC1CC2CCC(C1)N2Cc1ccccc1)c1ccc(Cl)cc1 (centres unmarked) [CBK120192] | 140.553% |
| Cc1ccc(-c2[nH]ncc2C(=O)c2ccccc2C)c(O)c1 [CBK287929] | 149.221% |
| CC(C)OC(=O)COc1ccc2c(=O)c(Oc3ccccc3Br)coc2c1 [CBK264226] | 110.403% |
| CC(C)c1ccc(/C=C/C(=O)NCc2cccs2)cc1 [CBK149587] | 110.942% |
| COc1ccc(-c2n[nH]c(=S)n2CCC(=O)NCc2ccc(CN3CCCCC3)cc2)cc1 [CBK297918] | 134.166% |
| OCCN(CCO)Cc1c(Cl)cccc1Cl [CBK261887] | 124.914% |
| Cc1ccc(OCC(=O)Nc2ncc(C(F)(F)F)cc2Cl)c(Br)c1 [CBK266426] | 173.276% |
| COc1ccc2sc(C)[n+](CCC(=O)O)c2c1 [CBK260899B] | 115.29% |
| CCc1cc(=O)[nH]c(-c2ccc(N3CCOCC3C)nc2)n1 (centres unmarked) [CBK305532] | 155.596% |
| Clc1ccccc1-c1nccnc1NCCc1ccncc1 [CBK038055] | 241.308% |
| Cc1nn(C)c(=O)c2c(C)noc12 [CBK001462] | 115.803% |
| Cn1c(CCNC(=O)NC2CCCCC2)nc2cc([N+](=O)[O-])ccc21 [CBK268453] | 132.241% |
| Cc1ccc(Cl)cc1N(Cc1ccc(C(=O)N2CCC(C)CC2)cc1)S(=O)(=O)c1ccccc1 [CBK033646] | 97.0062% |
| CC(C)(C)C(O)CNc1ncnc2ccc(S(C)(=O)=O)cc12 (centres unmarked) [CBK306494] | 103.648% |
| Cn1c(Cc2cccc3ccccc23)nnc1SCC(=O)Nc1ccccc1F [CBK265856] | 92.1366% |
| CCOP(=O)(O)c1c([N+](=O)[O-])cc(C(F)(F)F)cc1[N+](=O)[O-] [CBK261106G] | 87.4424% |
| COc1ccc(CCNS(=O)(=O)c2cccc([N+](=O)[O-])c2)cc1OC [CBK263618] | 115.253% |
| CCCc1cnc(N2CCN(S(=O)(=O)c3ccc(NC(C)=O)cc3Cl)CC2)nc1 [CBK086208] | 93.7817% |
| O=C(Nc1cccc(-c2cn3cccnc3n2)c1)c1cccc([N+](=O)[O-])c1 [CBK268963] | 140.603% |
| CC1(C)CCCCC1CC(=O)NS(=O)(=O)c1cccc(-c2nnco2)c1 (centres unmarked) [CBK306477] | 117.531% |
| CSc1ccccc1CNC(=O)c1cc(Br)cnc1N(C)C(C)=O [CBK076478] | 115.697% |

| Compound | % of control remaining |
| --- | --- |
| N#Cc1ccc(-n2nc(-c3ccccc3)c3ccccc3c2=O)c([N+](=O)[O-])c1 [CBK132567] | 125.599% |
| Cc1cc(N2C[C@H](CO)OC2=O)ccc1C#N [CBK017978] | 98.689% |
| O=C(O)CCC(=O)Nc1cccc(C(=O)Nc2ccc(Br)cc2)c1 [CBK269129] | 144.097% |
| C=CCN(Cc1nc(-c2ccccc2)no1)C(=O)Nc1ccc(C)cc1 [CBK269859] | 83.5956% |
| CC(C)CSc1nccnc1N1CCCC1 [CBK103683] | 98.844% |
| COc1ccc(C2(CN3CCC(NC(=O)C(C)C)CC3)CC2)cc1 [CBK285374] | 111.456% |
| CC(NC(=O)N1CCC2(CC1)NC(=O)Cc1ccccc12)c1cccc2ccccc12 (centres unmarked) [CBK047280] | 100.976% |
| S=C(Nc1ccc(Nc2ccccc2)cc1)N1CCN(C/C=C/c2ccccc2)CC1 [CBK266149] | 112.414% |
| O=C(CCc1nc2ccccc2nc1O)OCc1cccc([N+](=O)[O-])c1 [CBK266804] | 142.832% |
| COCc1cc(CN2CCN(C)CC2)c(O)c2ncccc12 [CBK263546] | 95.9437% |
| Cc1cc(C)c(S(=O)(=O)NC(CC(=O)O)c2ccccc2)cc1C (centres unmarked) [CBK267081] | 168.655% |
| COc1ccccc1-c1cc2c(=O)n(C)c(-c3ccc(CNC(C)C)cc3)cc2o1 [CBK051699C] | 83.3635% |
| Cc1ccc(-n2c(SCC(=O)NCc3ccccc3)nnc2-c2ccc(Cl)cc2)cc1C [CBK265909] | 182.839% |
| O=C1COc2ccccc2C/C=C/CC2(CCCN(C(=O)CN3CSCC3=O)C2)CN1 (centres unmarked) [CBK292035] | 115.432% |
| O=C1CN(C(=O)NCCOc2ccccc2)CCN1 [CBK155871] | 81.9332% |
| O=C(NC1CC1)c1cnoc1-c1ccccc1 [CBK154935] | 114.41% |
| O=C(CCn1ccnc1)NCC1Cc2ccccc2O1 (centres unmarked) [CBK283062] | 137.721% |
| CS(=O)(=O)c1ccc(CNC(=O)c2cc(-c3ccc(C(=O)N4CCOCC4)cc3)cnc2N)cc1 [CBK158599] | 122.203% |
| CCn1ncc(S(=O)(=O)N2CCC(c3cccc(Cc4ccccc4C)n3)CC2)c1C [CBK286116] | 99.0163% |
| O=C(O)CCc1ccc(-c2ccc(F)cc2)n1-c1cc(Cl)ccc1Cl [CBK264754] | 120.344% |
| COc1ccc(-c2cc(C(=O)NCC(O)CO)cnc2-c2ccc(Cl)cc2)cn1 (centres unmarked) [CBK036645] | 226.776% |
| CS(=O)(=O)N1CCN(c2ccccc2NC(=O)Cc2ccc(Cl)cc2)CC1 [CBK267605] | 130.507% |
| C[C@H]1CC[C@H](C(=O)N2CCC[C@H]2C(=O)O)CC1 [CBK028320] | 113.736% |
| Cc1cccc(NC(=O)C2CC(=O)NC(Nc3nc4ccccc4s3)=N2)c1 (centres unmarked) [CBK264362] | 114.282% |
| N=C(N)NCCCc1c[nH]c2ccccc12 [CBK012139G] | 85.8003% |
| FC(F)(F)c1ccnc(Sc2nc[nH]n2)n1 [CBK093806] | 115.981% |
| O=C(NC(Cc1ccccc1)C(=O)N1CCCC1C(=O)O)c1ccccc1 (stereo not drawn) [CBK264058] (Bz-Phe-Pro-OH; configuration not given here) | 128.548% |

An excerpt from above in order of SMILES length, high to low.

| Compound | % of control remaining |
| --- | --- |
| CCn1ncc(S(=O)(=O)N2CCC(c3cccc(Cc4ccccc4C)n3)CC2)c1C [CBK286116] | 99.0163% |
| S=C(Nc1ccc(Nc2ccccc2)cc1)N1CCN(C/C=C/c2ccccc2)CC1 [CBK266149] | 112.414% |
| O=C(NC(Cc1ccccc1)C(=O)N1CCCC1C(=O)O)c1ccccc1 (stereo not drawn) [CBK264058] (Bz-Phe-Pro-OH; configuration not given here) | 128.548% |
| C=CCN(Cc1nc(-c2ccccc2)no1)C(=O)Nc1ccc(C)cc1 [CBK269859] | 83.5956% |
| COc1ccc(C2(CN3CCC(NC(=O)C(C)C)CC3)CC2)cc1 [CBK285374] | 111.456% |

The results go on:

| Compound | % of control remaining |
| --- | --- |
| Cc1cnc2c(N3CCCC3)nc(Cl)cn12 [CBK092250] | 110.498% |
| Cc1cccc(C)c1OCC(O)CNCCc1ccccc1 (centres unmarked) [CBK003072] | 106.811% |
| CCNc1nc2ccccn2c(=O)c1C=C1SC(=S)N(CCCC(=O)O)C1=O [CBK296757] | 199.303% |
| O=S1(=O)CCN(Cc2cnn(-c3cncnc3)n2)CC1 [CBK112878] | 162.846% |
| C1=C(CCNCCc2ccccc2)c2ccccc2C12CCCC2 [CBK024723] | 16.9991% |
| C=CCn1c(COc2cccc(Cl)c2)nnc1SCC(=O)O [CBK269389] | 129.773% |
| Clc1ccc(Nc2cncc(-c3cccs3)n2)cc1 [CBK065805] | 131.359% |
| CCc1nc(-c2ccc(N(C)C)nc2)nn1C [CBK307381] | 70.0992% |
| CCOc1ccc(C(=O)Nc2ccc(-c3nc4ccccc4s3)cc2C)cc1[N+](=O)[O-] [CBK269005] | 140.655% |
| O=C(C1CCCO1)N1CCC(c2onc3c2CCCCC3)CC1 (centres unmarked) [CBK284487] | 123.176% |
| CC(C)Nc1nccnc1OC1CCNC1 (centres unmarked) [CBK115279] | 100% |
| O=c1cc(CN2CCCc3ccccc32)[nH]c(=O)[nH]1 [CBK138331] | 92.5365% |
| CN1[C@@H](CCC(=O)Nc2ccccc2)CNC(=O)[C@@H]2[C@H]1CCN2C1CCOCC1 [CBK289029] | 128.99% |
| CN(C)CC1CN(C(=O)c2ccccc2F)Cc2ccccc2O1 (centres unmarked) [CBK285188] | 119.666% |
| CCCC(=O)Nc1ccc(-c2csc(CCN3CCOC3=O)n2)cc1 [CBK305687] | 105.587% |
| O=C(NCCF)c1cn2cc(-c3cccs3)n(CC3CC3)c(=O)c2n1 [CBK307367] | 126.427% |
| Cc1ccc(-c2ccc(N3CCN(C)CC3)nc2)cc1C [CBK036937] | 208.702% |
| Cc1nc2ccc(NC(=O)c3cccc(C(F)(F)F)c3)cc2nc1C [CBK270221] | 136.207% |
| CCn1cncc1CN(CCCn1ccnc1)Cc1ccc(C)s1 [CBK283104] | 113.233% |
| O=C1CC(c2cccnc2)=NN1c1ccc(Cl)cc1Cl [CBK067764] | 103.8% |
| COCCNc1nc(-c2ccc3ccccc3c2)cn2ccnc12 [CBK066138] | 161.933% |
| Cn1cc(CN2CCNC(=O)C2c2ccccc2C(F)(F)F)cn1 (centres unmarked) [CBK306407] | 90.8171% |
| CC(=O)N1CCC(C(=O)NC(c2ccc3c(c2)OCO3)c2cccs2)CC1 (centres unmarked) [CBK059881] | 149.445% |
| O=C(O)COc1ccccc1/C=N/n1c(S)nnc1-c1ccncc1 [CBK265253] | 100% |
| Cc1ncc([N+](=O)[O-])n1CCSc1nnc(SCc2ccccc2)s1 [CBK264751] | 100% |
| COC(=O)c1ccc2c(c1)C(=O)N(c1ccc(C(=O)OCC(C)C)cc1)C2=O [CBK156802] | 117.845% |
